PubChem BioAssay AID602196 | INSERM, 2012
Screen: 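Modifiers of cisplatin sensitivity in A549 cells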. Cells: human A549 lung cancer cells. Reagent: siRNA pair against human genes. Duration: 48 h transfection before cisplatin; time from cisplatin to read-out not stated. Conditions: cisplatin at a dose killing half of control-siRNA cells; exact dose and duration not given. Measurement: 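Cisplatin cell death as a shift from the 50% death seen with control siRNA; siRNAs toxic or growth-blocking alone scored 0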. Reading the numbers: two-siRNA summed score (-2 to +2): higher = both siRNAs protect from cisplatin killing; -2 means both sensitise. Hit rule: 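siRNAs harmful alone (LDH or WST-1) get 0; others get +1 for less and -1 for more cisplatin killing; genes are active when the two siRNAs give the same sign, summing to ±2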. Calls: active = both siRNAs shift cisplatin killing the same way; inactive = no consistent shift, or siRNA harmful alone.
Shown is a random part of about 23,000 reagents tested. In the full data, 455 (2%) were called active. 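Active includes both protection and sensitisation; some change values fall well beyond the stated -50 to +50 range.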 A number with no mark means an inactive call. Not all columns of the deposit are shown. Not stated in the record: the amount of reagent.

Silencing of ACAP1 [SID131510318] resulted in: two-siRNA summed score (-2 to +2) = 0.
With knock-down of PPIAP72 [SID131522344], the record shows two-siRNA summed score (-2 to +2) = 1.
With knock-down of DPP10-AS1 [SID131522675], the record shows two-siRNA summed score (-2 to +2) = 1.
After knock-down of EIF3A [SID131517213], the screen gave two-siRNA summed score (-2 to +2) = 0.
ASS1 [SID131520202] showed two-siRNA summed score (-2 to +2) = 1.
For BLOC1S3 [SID131522563], the entry reads two-siRNA summed score (-2 to +2) = 1.
Silencing of REN [SID131517376] gave: two-siRNA summed score (-2 to +2) = 0.
For LOC343052 [SID131502336], the values are two-siRNA summed score (-2 to +2) = -1.
With knock-down of GDPD4 [SID131520142] the results were two-siRNA summed score (-2 to +2) = 1.
Silencing of FGGY [SID131520850] came out at: two-siRNA summed score (-2 to +2) = 1.
With knock-down of INTS8 [SID131505234], the screen gave two-siRNA summed score (-2 to +2) = 0.
Silencing of RWDD2B [SID131513205] came out at: two-siRNA summed score (-2 to +2) = 0.
Depletion of LOC440476 [SID131521674] resulted in: two-siRNA summed score (-2 to +2) = 1.
Silencing of BTG3 [SID131502487] came out at: two-siRNA summed score (-2 to +2) = -1.
LOC440487 [SID131518762] gave two-siRNA summed score (-2 to +2) = 0.
After knock-down of PKHD1L1 [SID131508456], the screen gave two-siRNA summed score (-2 to +2) = 0.
With knock-down of LOC441334 [SID131512823], the screen gave two-siRNA summed score (-2 to +2) = 0.
After knock-down of ZNF395 [SID131507088] the results were two-siRNA summed score (-2 to +2) = 0.
Knock-down of LOC149709 [SID131520409] resulted in: two-siRNA summed score (-2 to +2) = 1.
Against PEX3 [SID131510079], the values are two-siRNA summed score (-2 to +2) = 0.
For ZNF106 [SID131510084], the values are two-siRNA summed score (-2 to +2) = 0.
Against KLHL25 [SID131503684], the values are two-siRNA summed score (-2 to +2) = 0.
Against MAT2B [SID131514059], the values are two-siRNA summed score (-2 to +2) = 0.
For BUD13 [SID131509818], the values are two-siRNA summed score (-2 to +2) = 0.
Silencing of LOC401721 [SID131512413] resulted in: two-siRNA summed score (-2 to +2) = 0.
ROR2 [SID131515577] showed two-siRNA summed score (-2 to +2) = 0.
DENND1A [SID131514137] showed two-siRNA summed score (-2 to +2) = 0.
Knock-down of C5AR1 [SID131501129] gave: two-siRNA summed score (-2 to +2) = -1.
With knock-down of TFRC [SID131510202] the results were two-siRNA summed score (-2 to +2) = 0.
BNIP3 [SID131519125] scored two-siRNA summed score (-2 to +2) = 1.
CLPS [SID131511093] showed two-siRNA summed score (-2 to +2) = 0.

Not a retest: an excerpt of the list.
FGGY [SID131520850]: two-siRNA summed score (-2 to +2) = 1
INTS8 [SID131505234]: two-siRNA summed score (-2 to +2) = 0
RWDD2B [SID131513205]: two-siRNA summed score (-2 to +2) = 0
